Our source for the binding signal values is article PMC5996148.

Chains of the proteins cited; added tags and fusions are not shown.
UniProt Q9UIV1, whole entry: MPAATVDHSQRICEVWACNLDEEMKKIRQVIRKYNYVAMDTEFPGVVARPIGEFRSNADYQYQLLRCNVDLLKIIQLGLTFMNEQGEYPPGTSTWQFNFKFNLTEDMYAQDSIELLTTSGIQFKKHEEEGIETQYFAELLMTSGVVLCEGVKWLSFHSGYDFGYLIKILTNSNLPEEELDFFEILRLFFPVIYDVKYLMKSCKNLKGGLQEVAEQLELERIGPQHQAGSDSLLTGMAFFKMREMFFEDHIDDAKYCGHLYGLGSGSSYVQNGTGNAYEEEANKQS

Among the test systems are CDK6 (human); CDKN2D (human); CEACAM6 (human); CENTD2 (human); CHEK2 (human); CHN1 (human); CHRAC1 (human); CIAPIN1 (human); CKB (human); CKLFSF5 (human); CKM (human); CLCF1 (human); CLDN2 (human); CLP1 (human); CLTB (human); CLUL1 (human); CNNM1 (human); COASY (human).
Assay in all cases: protein microarray (ProtoArray v5.0), streptavidin-Alexa Fluor 647
Common to all, as to conditions: 3'-biotin; 20 mM Tris (pH 7.5), 5 mM MgCl2, 100 mM KCl, 0.1% Tween-20, A/T-rich and random oligonucleotide blockers; temperature not stated; high values mean tight binding

The target of a further experiment is T1, CLTA (UniProt P09496).
T1 sequence: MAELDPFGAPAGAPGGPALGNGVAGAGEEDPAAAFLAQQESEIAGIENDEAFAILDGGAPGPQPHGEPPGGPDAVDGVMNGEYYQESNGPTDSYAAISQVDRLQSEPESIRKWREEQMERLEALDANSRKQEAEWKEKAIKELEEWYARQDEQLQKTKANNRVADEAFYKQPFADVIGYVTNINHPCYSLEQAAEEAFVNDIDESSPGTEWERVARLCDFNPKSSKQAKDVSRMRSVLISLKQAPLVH

A further experiment deals with CNOT7 (UniProt Q9UIV1).

Values joined by “and” are separate entries in the source; they are usually repeats but may differ in a detail not shown here. Equal entries are not always repeated. The list shows a part of the results. For some assays here: The source does not settle which construct or isoform was used.

As for “GGTGACAGGGGTATGGGGAGGGG [G4-2 biotinylated (Ct1)]”, the binding signal in the experiment with CDK6 (human) is -0.38 z-score; in the experiment on CDKN2D (human), -0.398 z-score; in the experiment with CEACAM6 (human), -0.387 z-score; in the experiment with CENTD2 (human), -0.382 z-score; in the experiment on CHEK2 (human) it was -0.369 z-score; in the experiment on CHN1 (human), -0.395 z-score. The binding signal was -0.39 z-score in the experiment on CHRAC1 (human); -0.384 z-score in the experiment on CIAPIN1 (human); -0.378 z-score in the experiment with CKB (human); -0.391 z-score in the experiment on CKLFSF5 (human); -0.392 z-score with CKM (human); -0.393 z-score with CLCF1 (human). Moreover, the binding signal with CLDN2 (human) is -0.376 z-score; in the experiment on CLP1 (human), -0.383 z-score; with CLTA, -0.399 z-score; in the experiment with CLTB (human), -0.403 z-score; in the experiment on CLUL1 (human), -0.385 z-score; in the experiment with CNNM1 (human) it was -0.362 z-score. For the same sequence, the binding signal was -0.377 z-score with CNOT7; -0.383 z-score and -0.372 z-score in the experiment with COASY (human).
